Measured values as given in the supplement of paper PMC11150407.
The campaign covered roughly 2,100 compounds. About 180 (8.6%) showed an effect of 50% or more. This is one part of the list.

test system: MOLM1 and UCSD/AML1 (averaged); assay: cell viability relative to DMSO control (POC); higher = less growth inhibition; details: 1 µM; 72 h
Protocol: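 Primary viability screen in the 3q26 EVI1-high AML cell lines MOLM1 and UCSD/AML1 (1.5e3 cells/well, 384-well), compounds at 1 uM for 72 h. ATP CellTiter-Glo read-out given as percent of viable cells over DMSO control (POC), averaged over duplicates. DMSO was the negative control and 5 uM etoposide the positive control. This mapping covers the MicroSource Spectrum and Selleck anticancer libraries (drug names).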

| Structure (SMILES) | cell viability [%] |
| --- | --- |
| Cc1ccc2c(=O)c3cccc(CC(=O)O)c3oc2c1C | 99.8 |
| C=C1/C(=C\C=C2/CCC[C@]3(C)[C@@H]([C@H](C)/C=C/[C@H](C)C(C)C)CC[C@@H]23)C[C@@H](O)C[C@@H]1O [Doxercalciferol (Hectorol)] | 99.3 |
| CC12CCCC(O)(C1)C1CC(C)(C)C1CC2 (stereo not drawn) [beta-CARYOPHYLLENE ALCOHOL] | 111 |
| CC(C)(C)c1ccc(C(O)CCCN2CCC(C(O)(c3ccccc3)c3ccccc3)CC2)cc1 (configuration not stated) | 96.2 |
| Cc1cc(=O)oc2c(O)c(O)ccc12 | 93.6 |
| CC(COc1ccccc1)NC(C)C(O)c1ccc(O)cc1 (configuration not stated) | 118 |
| Nc1ccc(S(=O)(=O)Nc2ccccn2)cc1 | 100 |
| CO[C@H]1C[C@H](O[C@H]2[C@H](C)[C@@H](O[C@@H]3O[C@H](C)C[C@H](N(C)C)[C@H]3O)[C@@H](C)C[C@@]3(CO3)C(=O)[C@H](C)[C@@H](O)[C@@H](C)[C@@H](C)OC(=O)[C@@H]2C)O[C@@H](C)[C@@H]1O | 96.2 |
| COc1ccnc(C[S+]([O-])c2nc3cc(OC(F)F)ccc3[nH]2)c1OC (configuration not stated) | 96.9 |
| O=C(O)[C@H](O)[C@@](O)(Cc1ccc(O)cc1)C(=O)O | 92.1 |
| Nc1ccn([C@@H]2O[C@H](CO)[C@@H](O)[C@@H]2O)c(=O)n1 | 8.69 |
| Nc1ccn([C@@H]2O[C@H](CO)[C@@H](O)[C@@H]2O)c(=O)n1 [Cytarabine] | 7.02 |
| CCCCOc1cc(CC2CNC(=O)N2)ccc1OC (configuration not stated) | 124 |
| CC(C)Cn1c(=O)n(C)c(=O)c2[nH]cnc21 | 110 |
| O=c1[nH]cnc2c1ncn2[C@@H]1O[C@H](CO)[C@@H](O)[C@H]1O | 109 |
| COc1cc([C@@H]2c3cc4c(cc3[C@@H](O[C@@H]3O[C@@H]5CO[C@@H](c6cccs6)O[C@H]5[C@H](O)[C@H]3O)[C@H]3COC(=O)[C@H]23)OCO4)cc(OC)c1O [Teniposide (Vumon)] | 12.4 |
| COc1cc([C@@H]2c3cc4c(cc3[C@@H](O[C@@H]3O[C@@H]5CO[C@@H](c6cccs6)O[C@H]5[C@H](O)[C@H]3O)[C@H]3COC(=O)[C@H]23)OCO4)cc(OC)c1O | 27.5 |
| O=c1ccc2ccccc2o1 | 102 |
| NCCOB(c1ccccc1)c1ccccc1 | 117 |
| CC1(C)C=Cc2cc3ccc(=O)oc3cc2O1 | 107 |
| CCOC(=O)c1c(C)cc(O)cc1O | 104 |
| CN(C)CCCN1c2ccccc2Sc2ccc(Cl)cc21 | 97.2 |
| CN(C)c1ccc(O)c2c1C[C@H]1C[C@H]3[C@H](N(C)C)C(O)=C(C(N)=O)C(=O)[C@@]3(O)C(O)=C1C2=O | 91.5 |

| Structure (SMILES) | cell viability [%] |
| --- | --- |
| Cc1ccsc1/C=C/C1=NCCCN1C | 99.9 |
| COc1cc(OC)c2c(=O)c(-c3ccc4c(c3)OCO4)coc2c1 | 127 |
| O=c1c(O)cc([C@H]2Oc3cc(O)cc(O)c3C[C@H]2O)cc2c([C@H]3Oc4cc(O)cc(O)c4C[C@H]3O)cc(O)c(O)c12 | 104 |
| CN(Cc1cnc2nc(N)nc(N)c2n1)c1ccc(C(=O)N[C@@H](CCC(=O)O)C(=O)O)cc1 [Abitrexate (Methotrexate)] | 103 |
| O=C(COc1ccc(Cl)cc1)N1CCN(Cc2ccc3c(c2)OCO3)CC1 | 106 |
| CCOc1ccc2nc3cc(N)ccc3c(N)c2c1 | 110 |
| CCN(CC)CCNc1ccc(CO)c2sc3ccccc3c(=O)c12 | 78.3 |
| CC(C)(C)CC(C)(C)c1ccc(O)c(Cc2ccc(Cl)cc2Cl)c1 | 90.6 |
| CCN(CC)CCOC(=O)C(c1ccccc1)c1ccccc1 | 99.8 |
| C[C@H]1[C@H](C)CC[C@]2(C(=O)O)CC[C@]3(C)C(=CC[C@@H]4[C@@]5(C)C[C@@H](O)[C@H](O)[C@@](C)(CO)[C@@H]5CC[C@]43C)[C@H]12 | 89.8 |
| CCOC(=O)c1ccc(N)cc1 | 105 |
| CC(C)CCCC(C)C1CCC2C3=CCC4CC(O)CCC4(C)C3CCC21C (configuration not stated) | 93 |
| C[C@]12CC[C@@H]3c4ccc(OS(=O)(=O)O)cc4CC[C@H]3[C@@H]1CCC2=O | 92.4 |
| COc1cccc(OC)c1C(=O)N[C@@H]1C(=O)N2[C@@H]1SC(C)(C)[C@@H]2C(=O)O | 101 |
| Cc1ccc(S(=O)(=O)NC(=O)NN2CCCCCC2)cc1 | 94.9 |
| CCCCC1(COC(=O)CCC(=O)O)C(=O)N(c2ccccc2)N(c2ccccc2)C1=O | 93.2 |
| COc1cc(NC(C)CCCN)c2ncccc2c1 (configuration not stated) | 99.5 |
| COC(=O)[C@@H]1OC(=O)[C@H]2O[C@@]23[C@@]1(C)CCC1[C@@]2(C)CCC(=O)C(C)(C)C2C[C@@H](OC(C)=O)[C@]13C (some centres not stated) | 99 |
| CSc1ccc2c(c1)N(CCC1CCCCN1C)c1ccccc1S2 (configuration not stated) | 119 |
| CC1=C(/C=C/C(C)=C/C=C/C(C)=C\C(=O)O)C(C)(C)CCC1 [Isotretinoin] | 74.2 |
| CC1=C(/C=C/C(C)=C/C=C/C(C)=C\C(=O)O)C(C)(C)CCC1 | 87 |
| CC/C(=C(/CC)c1ccc(O)cc1)c1ccc(O)cc1 | 108 |
| NC(N)=Nc1nc(CSCC/C(N)=N/S(N)(=O)=O)cs1 | 102 |

Retrieved one by one from the list above, 4 records:

| Structure (SMILES) | cell viability [%] |
| --- | --- |
| CC/C(=C(/CC)c1ccc(O)cc1)c1ccc(O)cc1 | 108 |
| Cc1cc(=O)oc2c(O)c(O)ccc12 | 93.6 |
| O=c1ccc2ccccc2o1 | 102 |
| Cc1ccc2c(=O)c3cccc(CC(=O)O)c3oc2c1C | 99.8 |

Part of the list above, with tabs:
Structure (SMILES)	cell viability [%]
CC(C)CCCC(C)C1CCC2C3=CCC4CC(O)CCC4(C)C3CCC21C (configuration not stated)	93
Cc1ccc(S(=O)(=O)NC(=O)NN2CCCCCC2)cc1	94.9

Following part:

| Structure (SMILES) | cell viability [%] |
| --- | --- |
| COc1ccc(-c2cc(=O)c3c(OC(C)=O)cc(OC(C)=O)cc3o2)cc1 | 96.9 |
| Cc1cc(-c2ccccc2)nnc1NCCN1CCOCC1 | 97.7 |
| COC1(C)CCC2OC2(C)CCC2C1CC2(C)C (configuration not stated) | 102 |
| COc1ccc(-c2ccc3c(N4CCOCC4)nc(N4C[C@@H](C)O[C@@H](C)C4)nc3n2)cc1CO | 30.1 |
| CC(=O)NCCc1ccc(O)c(-c2c(O)c(O)c3c(c2O)C(=O)c2c(cc(O)c(C(=O)O)c2C(=O)O)C3=O)c1 | 102 |
| CN(C)[C@@H]1C(O)=C(C(N)=O)C(=O)[C@@]2(O)C(O)=C3C(=O)c4c(O)cccc4[C@@](C)(O)[C@H]3[C@H](O)[C@@H]12 | 97.5 |
| COc1cc(OC)c(/C=C/S(=O)(=O)Cc2ccc(OC)c(NCC(=O)O)c2)c(OC)c1 | 41.4 |
| COC(=O)C1=C(C)NC(C)=C(C(=O)OCCN(C)Cc2ccccc2)C1c1cccc([N+](=O)[O-])c1 (configuration not stated) | 88.9 |
| Cc1cc(Nc2cc(N3CCN(C)CC3)nc(/C=C/c3ccccc3)n2)n[nH]1 | 19.9 |
| CCCC(=O)[O-].[Na+] [Sodium butyrate] | 91.3 |
| CC(C)=CCc1c2c(c3occ(-c4ccc(O)cc4)c(=O)c3c1O)C=CC(C)(C)O2 | 108 |
| COC(=O)C1=C(C)NC(C)=C(C(=O)OCC(C)C)C1c1ccccc1[N+](=O)[O-] (configuration not stated) | 100 |
| NC(=O)NC1NC(=O)NC1=O (configuration not stated) | 97.2 |
| C[C@@H]1CC[C@@]23CCC4(C)[C@@](C=CC5[C@@]6(C)CCC(=O)C(C)(C)C6CC[C@]54C)(OC2=O)C3[C@H]1C (some centres not stated) | 95.6 |
| O=C1CCc2ccc(OCCCCN3CCN(c4cccc(Cl)c4Cl)CC3)cc2N1 | 83.4 |
| CN(C)CCOC(c1ccc(Cl)cc1)c1ccccn1 (configuration not stated) | 111 |
| COc1c2ccoc2cc2oc(=O)ccc12 | 98.4 |
| Cc1ccccc1C(OCCN(C)C)c1ccccc1 (configuration not stated) | 99.5 |
| CC(=O)OC(C)(C)[C@@H]1Cc2cc3ccc(=O)oc3cc2O1 | 100 |
| O=C1C(O)=C([C@H]2CC[C@H](c3ccc(Cl)cc3)CC2)C(=O)c2ccccc21 | 96.7 |
| CN1CCOC(c2ccccc2)c2ccccc2C1 (configuration not stated) | 104 |
| N=C(N)NCCCCN | 96.8 |
| COc1ncc(-c2ccc3nccc(-c4ccnnc4)c3c2)cc1NS(=O)(=O)c1ccc(F)cc1F | 12.4 |

| Structure (SMILES) | cell viability [%] |
| --- | --- |
| CN1CCC(=C2c3ccccc3CCc3sccc32)CC1 | 92.9 |
| CCN(CC)CCOc1ccc(C(=C(Cl)c2ccccc2)c2ccccc2)cc1 | 96.6 |
| CC1(C)CC[C@]2(C(=O)O)CC[C@]3(C)C(=CCC4[C@@]5(C)CC[C@@H](O)C(C)(C)C5CC[C@]43C)C2C1 (some centres not stated) | 102 |
| CCCCCOC(=O)Nc1nc(=O)n([C@@H]2O[C@H](C)[C@@H](O)[C@H]2O)cc1F [Capecitabine (Xeloda)] | 101 |
| CCCCNc1ccc(C(=O)OCCN(C)C)cc1 | 98.6 |
| CC(O)(P(=O)(O)O)P(=O)(O)O | 92.4 |
| Cc1cnc(C(=O)NCCc2ccc(S(=O)(=O)NC(=O)NC3CCCCC3)cc2)cn1 | 99.7 |
| O=C1[C@H](CC[C@H](O)c2ccc(F)cc2)[C@@H](c2ccc(O)cc2)N1c1ccc(F)cc1 [Ezetimibe (Zetia)] | 93.8 |
| O=C1[C@H](CC[C@H](O)c2ccc(F)cc2)[C@@H](c2ccc(O)cc2)N1c1ccc(F)cc1 | 94.2 |
| CC(=O)O[C@H]1C[C@@H](OC(C)=O)C(C)(C)[C@@H]2C[C@@H](OC(C)=O)[C@@]3(C)C4=CC(=O)O[C@@H](c5ccoc5)[C@]4(C)CC[C@@H]3[C@@]12C | 94.5 |
| COc1ccc(C(=O)c2ccccc2O)c(O)c1 | 107 |
| COCCc1ccc(OCC(O)CNC(C)C)cc1 (configuration not stated) | 98.9 |
| Nc1nc2[nH]cc(CCc3ccc(C(=O)N[C@@H](CCC(=O)O)C(=O)O)cc3)c2c(=O)[nH]1 [Pemetrexed] | 101 |
| COC1=CC(=O)C=C(OC)C1=O | 91.5 |
| CC(C)Cc1ccc(C(C)C(=O)O)cc1 (configuration not stated) | 103 |
| O=c1c(O)c(-c2ccc(O)c(O)c2)oc2cc(O)cc(O)c12 | 102 |
| O=c1c(O)c(-c2ccc(O)c(O)c2)oc2cc(O)cc(O)c12 [Quercetin (Sophoretin)] | 84 |
| O=C(O)C1(C(=O)O)CCC1.[NH2-].[NH2-].[Pt+2] | 100 |
| O=C(O)C1(C(=O)O)CCC1.[NH2-].[NH2-].[Pt+2] [Carboplatin] | 87.5 |
| CC1=C(C/C=C(\C)CCC[C@H](C)CCC[C@H](C)CCCC(C)C)C(=O)c2ccccc2C1=O | 85.4 |
| COc1cc(OC)c(-c2c(OC)cc(OC)cc2OC)c(OC)c1 | 104 |
| C=C(c1ccc(C(=O)O)cc1)c1cc2c(cc1C)C(C)(C)CCC2(C)C [Bexarotene] | 78.1 |
| C#C[C@]1(O)CC[C@H]2[C@@H]3CCC4=C(CCC(=O)C4)[C@H]3CC[C@@]21C | 95.5 |
